Patent US9982008B2, “Preparation and uses of obeticholic acid” (Intercept Pharmaceuticals, Inc., priority 2012, dated 2018)
For at least one compound, name, drawing or mass did not settle the structure.

Assay: Gravimetric Vapor Sorption (GVS)
Assay type: physicochemical
Settings: for Hygroscopicity (GVS) / GVS water uptake / weight change: 25° C., 0 to 90% RH; for Hygroscopicity (GVS): in words
Experimental: (§1) Sorption isotherms were obtained using a SMS DVS Intrinsic moisture sorption analyzer, controlled by DVS Intrinsic Control software v 1.0.0.30. The sample temperature was maintained at 25° C. by the instrument controls. The humidity was controlled by mixing streams of dry and wet nitrogen, with a total flow rate of 200 ml·min^−1. The relative humidity was measured by a calibrated Rotronic probe (dynamic range of 1.0-100% RH), located near the sample. The weight change, (mass relaxation) of the sample as a function of % RH (relative humidity) was constantly monitored by the microbalance (accuracy±0.005 mg).
5 to 20 mg of sample was placed in a tared mesh stainless steel basket under ambient conditions. The sample was loaded and unloaded at 40% RH and 25° C. (typical room conditions). A moisture sorption isotherm was performed as outlined below (2 scans giving 1 complete cycle). The standard isotherm was performed at 25° C. at 10% RH intervals over a 0.5-90% RH range. Data analysis was undertaken in Microsoft Excel using DVS Analysis Suite v6.0.0.7. Method Parameters for SMS DVS Intrinsic Experiments are as follows:
The sample was recovered after completion of the isotherm and re-analyzed by XRPD.
as §1, with “SMS Analysis Suite software.” for “DVS Intrinsic Control software v 1.0.0.30.”, “RH” for “RH (relative humidity)”
Typically 5-20 mg of sample was placed in a tared mesh stainless steel basket under ambient conditions. The sample was loaded and unloaded at 40% RH and 25° C. (typical room conditions). A moisture sorption isotherm was performed as outlined below (2 scans giving 1 complete cycle). The standard isotherm was performed at 25° C. at 10% RH intervals over a 0.5-90% RH range.

[1] = listed as Crystalline Obeticholic Acid Form C
[2] = listed as crystalline obeticholic acid Form C

CC[C@H]1[C@@H](O)[C@@H]2[C@H](CC[C@]3(C)[C@@H]([C@H](C)CCC(=O)O)CC[C@@H]23)[C@@]2(C)CC[C@@H](O)C[C@@H]12 [Form C, obeticholic acid]
Hygroscopicity (GVS) [1]: Slightly hygroscopic | Hygroscopicity (GVS) [2]: slightly hygroscopic | GVS water uptake / weight change [1]: 1.2% | GVS water uptake / weight change [2]: 1.18% | XRPD analysis after GVS (sample recovered after isotherm): unchanged
